## Percent effect of library compounds

Chains of the proteins cited; added tags and fusions are not shown. Residues count along the entry.
UniProt Q4DA54, 1-478: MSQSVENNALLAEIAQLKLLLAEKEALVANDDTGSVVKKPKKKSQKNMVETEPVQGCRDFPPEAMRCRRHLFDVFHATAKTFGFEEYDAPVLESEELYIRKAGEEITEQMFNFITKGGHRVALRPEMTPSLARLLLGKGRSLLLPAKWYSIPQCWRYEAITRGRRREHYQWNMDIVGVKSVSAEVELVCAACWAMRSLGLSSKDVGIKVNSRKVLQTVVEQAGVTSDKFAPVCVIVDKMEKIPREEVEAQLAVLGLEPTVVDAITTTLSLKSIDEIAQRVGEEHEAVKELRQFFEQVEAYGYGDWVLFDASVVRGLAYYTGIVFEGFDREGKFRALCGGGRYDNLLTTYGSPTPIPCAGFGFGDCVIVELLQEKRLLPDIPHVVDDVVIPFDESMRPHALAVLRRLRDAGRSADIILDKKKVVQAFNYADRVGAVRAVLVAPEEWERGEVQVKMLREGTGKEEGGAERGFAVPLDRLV
UniProt I6X8D2, whole entry: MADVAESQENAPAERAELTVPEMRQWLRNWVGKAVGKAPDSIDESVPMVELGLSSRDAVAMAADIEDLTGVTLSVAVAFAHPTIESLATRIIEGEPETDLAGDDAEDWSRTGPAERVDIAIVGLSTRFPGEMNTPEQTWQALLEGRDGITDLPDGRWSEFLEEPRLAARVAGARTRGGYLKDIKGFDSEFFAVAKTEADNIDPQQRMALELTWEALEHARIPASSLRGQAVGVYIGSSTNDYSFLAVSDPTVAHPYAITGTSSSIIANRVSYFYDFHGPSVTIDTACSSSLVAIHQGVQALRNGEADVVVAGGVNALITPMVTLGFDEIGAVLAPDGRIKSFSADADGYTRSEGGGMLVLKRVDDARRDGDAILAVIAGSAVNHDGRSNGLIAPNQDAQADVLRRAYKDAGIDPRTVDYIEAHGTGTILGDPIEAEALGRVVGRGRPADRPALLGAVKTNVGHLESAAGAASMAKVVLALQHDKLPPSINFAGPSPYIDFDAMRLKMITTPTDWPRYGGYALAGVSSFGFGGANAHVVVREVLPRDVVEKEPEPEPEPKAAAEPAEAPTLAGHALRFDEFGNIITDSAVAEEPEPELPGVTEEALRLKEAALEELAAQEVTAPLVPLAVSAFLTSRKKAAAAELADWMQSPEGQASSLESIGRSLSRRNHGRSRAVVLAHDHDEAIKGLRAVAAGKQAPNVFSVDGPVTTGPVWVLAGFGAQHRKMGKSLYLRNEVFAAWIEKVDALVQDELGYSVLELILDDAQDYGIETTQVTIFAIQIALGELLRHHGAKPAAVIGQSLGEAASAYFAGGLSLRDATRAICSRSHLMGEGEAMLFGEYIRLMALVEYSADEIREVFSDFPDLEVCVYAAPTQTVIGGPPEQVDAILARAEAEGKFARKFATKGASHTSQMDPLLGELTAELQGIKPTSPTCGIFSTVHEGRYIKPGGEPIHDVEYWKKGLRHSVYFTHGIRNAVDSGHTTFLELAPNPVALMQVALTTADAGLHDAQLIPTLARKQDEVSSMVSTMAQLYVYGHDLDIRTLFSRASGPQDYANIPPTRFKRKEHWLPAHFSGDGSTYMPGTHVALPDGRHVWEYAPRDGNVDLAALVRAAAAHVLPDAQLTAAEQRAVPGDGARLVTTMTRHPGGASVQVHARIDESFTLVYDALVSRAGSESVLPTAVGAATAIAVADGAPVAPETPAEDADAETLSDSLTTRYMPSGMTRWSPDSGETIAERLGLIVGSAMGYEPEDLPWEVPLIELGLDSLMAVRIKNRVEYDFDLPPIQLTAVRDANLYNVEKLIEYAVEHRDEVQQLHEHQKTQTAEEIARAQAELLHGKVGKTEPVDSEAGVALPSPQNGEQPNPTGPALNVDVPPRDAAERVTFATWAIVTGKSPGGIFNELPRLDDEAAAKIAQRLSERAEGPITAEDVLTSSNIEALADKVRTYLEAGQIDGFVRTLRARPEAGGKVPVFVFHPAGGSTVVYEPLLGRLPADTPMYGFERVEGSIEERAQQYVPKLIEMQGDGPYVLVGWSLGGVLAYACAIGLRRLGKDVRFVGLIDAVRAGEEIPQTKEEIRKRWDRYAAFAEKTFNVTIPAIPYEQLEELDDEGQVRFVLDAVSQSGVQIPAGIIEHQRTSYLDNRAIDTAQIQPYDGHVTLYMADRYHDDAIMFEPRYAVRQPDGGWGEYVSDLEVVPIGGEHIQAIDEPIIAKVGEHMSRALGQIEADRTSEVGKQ
UniProt P9WNZ1, whole entry: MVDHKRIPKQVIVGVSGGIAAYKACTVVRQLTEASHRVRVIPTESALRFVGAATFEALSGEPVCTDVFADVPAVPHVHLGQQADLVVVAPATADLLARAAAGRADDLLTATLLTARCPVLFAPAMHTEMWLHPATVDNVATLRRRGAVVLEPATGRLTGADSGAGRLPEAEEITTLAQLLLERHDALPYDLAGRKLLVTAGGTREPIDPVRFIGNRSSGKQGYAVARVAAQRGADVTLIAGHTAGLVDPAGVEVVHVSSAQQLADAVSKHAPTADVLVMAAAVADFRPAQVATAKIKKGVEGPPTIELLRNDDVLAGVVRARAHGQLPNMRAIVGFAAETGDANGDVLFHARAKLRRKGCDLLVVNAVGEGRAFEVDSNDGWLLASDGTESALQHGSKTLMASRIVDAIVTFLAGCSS
UniProt Q8IDJ8, 1-583: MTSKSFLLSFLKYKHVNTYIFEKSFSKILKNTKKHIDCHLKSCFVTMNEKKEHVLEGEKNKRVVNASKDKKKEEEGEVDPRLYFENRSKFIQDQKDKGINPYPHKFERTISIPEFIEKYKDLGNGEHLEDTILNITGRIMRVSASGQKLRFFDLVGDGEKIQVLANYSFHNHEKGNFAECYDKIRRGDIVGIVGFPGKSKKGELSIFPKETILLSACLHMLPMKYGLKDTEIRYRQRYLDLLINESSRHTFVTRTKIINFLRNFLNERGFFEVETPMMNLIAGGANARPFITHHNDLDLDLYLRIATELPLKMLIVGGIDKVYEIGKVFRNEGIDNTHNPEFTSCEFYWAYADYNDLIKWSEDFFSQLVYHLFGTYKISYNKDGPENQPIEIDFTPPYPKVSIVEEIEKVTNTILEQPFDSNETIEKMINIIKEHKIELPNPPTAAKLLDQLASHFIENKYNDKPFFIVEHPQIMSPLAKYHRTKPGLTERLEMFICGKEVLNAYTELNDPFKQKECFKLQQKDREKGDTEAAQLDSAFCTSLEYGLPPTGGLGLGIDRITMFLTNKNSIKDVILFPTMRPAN
UniProt P9WFT3, whole entry: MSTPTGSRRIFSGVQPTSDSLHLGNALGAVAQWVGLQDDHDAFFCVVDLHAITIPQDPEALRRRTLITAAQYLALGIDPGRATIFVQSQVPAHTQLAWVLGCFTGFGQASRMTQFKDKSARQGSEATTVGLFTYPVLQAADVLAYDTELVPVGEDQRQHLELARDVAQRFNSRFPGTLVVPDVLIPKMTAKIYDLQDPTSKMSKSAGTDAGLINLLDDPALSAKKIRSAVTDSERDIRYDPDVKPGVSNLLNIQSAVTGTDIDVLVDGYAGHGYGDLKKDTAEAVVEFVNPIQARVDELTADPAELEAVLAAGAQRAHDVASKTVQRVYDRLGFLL

TcHisRS: 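Histidine-tRNA ligase, Trypanosoma cruzi CL Brener (UniProt Q4DA54). Enzyme assay of histidyl-tRNA synthetase; the read-out is not stated. Tested at 30 µM. Direction is inferred from retests: higher values go with stronger inhibition. Of about 69,000 compounds tested this way, about 31 (0.045%) reached 50% or more in at least one test.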
Pks13 thioesterase: 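Polyketide synthase Pks13, Mycobacterium tuberculosis (UniProt I6X8D2). Enzyme assay of the thioesterase domain of polyketide synthase 13; the read-out is not stated. Concentration: 30 µM. Higher reads as stronger inhibition (inferred from which compounds were picked for retests). Of about 67,000 compounds tested this way, about 300 (0.46%) reached 50% or more in at least one test.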
CoaBC: 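Coenzyme A biosynthesis protein CoaBC, Mycobacterium tuberculosis (UniProt P9WNZ1). Enzyme assay of CoaBC with a phosphate dye (Biomol Green) read at 650 nm. Concentration: 30 µM. Direction is inferred from only a few compounds that gave an IC50; most scored high, so higher reads as stronger inhibition. Most strong results did not repeat in a second test. Size under these conditions: about 67,000 compounds, about 40 of them at 50% or above in at least one test.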
Leishmania in macrophages: 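Cell assay of Leishmania donovani living inside macrophages; the read-out is not stated. Tested at 30 µM. The record gives no direction; compounds that gave an IC50 in retests scored well above the rest, so higher reads as stronger inhibition. Of about 69,000 compounds tested this way, about 1,000 (1.5%) reached 50% or more in at least one test.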
PfKRS1: 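Enzyme assay of the cytosolic lysyl-tRNA synthetase in 384-well plates, read by luminescence. Target: Lysine-tRNA ligase, Plasmodium falciparum 3D7 (UniProt Q8IDJ8). Tested at 30 µM. Direction is inferred from only a few compounds that gave an IC50; most scored high, so higher reads as stronger inhibition. Of about 69,000 compounds tested this way, about 49 (0.071%) reached 50% or more in at least one test.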
MtTrpRS: 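Enzyme assay of tryptophanyl-tRNA synthetase; the read-out is not stated. Target: Tryptophan-tRNA ligase, Mycobacterium tuberculosis (UniProt P9WFT3). Tested at 10 µM. Direction is not recorded; retested compounds ran higher, which suggests that high means inhibition. About 65,000 compounds were tested under these conditions; 0.098% (about 64) showed 50% or more at least once.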

Each number is a percent effect as filed. The controls that fix the scale are not given in the record; negative values are as filed. This is an unselected part of the compounds tested. Two or more numbers in one place are separate tests of the same structure; such repeats can differ widely.

CN1CCO[C@@H]2CN(S(=O)(=O)c3ccccc3F)CC[C@@H]2C1 gave TcHisRS: 2.674%; Pks13 thioesterase: -28.25%; CoaBC: -4.167%; PfKRS1: 3.294%; MtTrpRS: -1.622%.
Nc1nccnc1C(=O)N(Cc1ccccc1O)CC1CCCO1 (stereo unspecified) gave TcHisRS: 4.712%; Pks13 thioesterase: -39.26%; CoaBC: -0.2141%; Leishmania in macrophages: -0.1848%; PfKRS1: 3.733%; MtTrpRS: 1.421%.
CC(C)COC1CC2(CCN(C(=O)Cc3ccccn3)CC2)C1 gave TcHisRS: -23.71%; Pks13 thioesterase: 0.2679%; CoaBC: 0.2463%; PfKRS1: 8.555%; MtTrpRS: -1.063%.
O=C(O)C(F)(F)F.[H][C@@]12CCN(C3CCC3)[C@]1([H])CC[C@H](C(=O)NCc1cccs1)O2 gave Leishmania in macrophages: 18.95%.
CN1C(=O)CC[C@]12CC[C@@H](NCc1ccsc1)CC2.O=C(O)C(F)(F)F gave Leishmania in macrophages: 16.7%.
CCc1noc(CS(=O)(=O)Cc2ccccc2Cl)n1 gave TcHisRS: 7.778%; Pks13 thioesterase: -38.83%; CoaBC: 5.042%; Leishmania in macrophages: 1.309%; PfKRS1: 3.71%; MtTrpRS: -0.1715%.
CN1CCN(S(=O)(=O)c2ccc(Sc3nccn3C)nc2)CC1 gave TcHisRS: -3.627%; Pks13 thioesterase: 0.6349%; CoaBC: 18.49%; Leishmania in macrophages: 0.3902%; PfKRS1: 0.2702%; MtTrpRS: 1.699%.
O=C(NCc1cccnc1)[C@H]1C[C@@H]2CCN(c3ccncn3)C[C@H]2O1 gave TcHisRS: 3.81%; Pks13 thioesterase: -1.745%; CoaBC: -14.92%; PfKRS1: -1.344%; MtTrpRS: -7.713%.
[H][C@@]12CCCC[C@]1(O)CCN(C(C)=O)[C@H]2c1ccc2c(c1)OCO2 gave Leishmania in macrophages: -4.386%.
O=C(O)[C@H]1OCC(=O)N(Cc2cccc(Cl)c2)[C@@H]1c1ccccc1 gave TcHisRS: 3.448%; Pks13 thioesterase: 6.56%; CoaBC: -2.184%; Leishmania in macrophages: 14.96%; PfKRS1: 1.198%; MtTrpRS: -1.48%.
Cc1nnc(CN2CCCC(c3cc(C(N)=O)[nH]n3)C2)o1 (stereo unspecified) gave TcHisRS: -0.7519%; Pks13 thioesterase: -6.597%; CoaBC: 5.575%; Leishmania in macrophages: 12.23%; PfKRS1: 0.578%; MtTrpRS: -2.582%.
COc1ccc(OCc2nccc(-c3cc(C(=O)O)ccn3)n2)cc1 gave TcHisRS: 0.9804%; Pks13 thioesterase: -19.07%; CoaBC: 7.317%; Leishmania in macrophages: 13.75%; PfKRS1: 2.802%; MtTrpRS: -1.655%.
C/C=C(\C)CN1C[C@H](NC(=O)CCOC)[C@@H](c2ccc(C)o2)C1 gave TcHisRS: -1.98%; Pks13 thioesterase: 19.91%; CoaBC: -0.8505%; Leishmania in macrophages: -3.802%; PfKRS1: 19.2%; MtTrpRS: 6.913%.
O=C(N1CCCO1)[C@@]12CCO[C@@H]1CCN(Cc1ccccc1)C2 gave TcHisRS: 5.946%; Pks13 thioesterase: -13.75%; CoaBC: 4.695%; PfKRS1: 4.699%; MtTrpRS: -4.092%.
CC(C)NC(=O)N1CCC2(CC1)NC(=O)CC2c1ccncc1.O=C(O)C(F)(F)F (stereo unspecified) gave Leishmania in macrophages: 2.171% & -23.98%.
CCCN(CC)C(=O)c1cc(Cn2c(C)nc3ccccc32)[nH]n1 gave TcHisRS: 8.458%; Pks13 thioesterase: -45.34%; CoaBC: -3.951%; Leishmania in macrophages: 56.73%; PfKRS1: 4.75%; MtTrpRS: -5.325%.
Cc1cc(C(=O)N2C[C@@H]3[C@@H](CN(C)CCCn4cccn4)[C@@H]3C2)c(C)o1 gave TcHisRS: 12.14%; Pks13 thioesterase: -10.96%; CoaBC: 0%; PfKRS1: 8.383%; MtTrpRS: -3.109%.
Cc1ccc(C(=O)NCCNC(=O)c2cncnc2C)cc1F gave TcHisRS: 1.064%; Pks13 thioesterase: -18.75%; CoaBC: 8.894%; Leishmania in macrophages: 9.682%; PfKRS1: -0.7264%; MtTrpRS: 3.749%.
Cc1cccc(CN2C(=O)CC[C@@H]3[C@H]2CCN3Cc2ccc(F)cc2)n1 gave TcHisRS: 11.82%; CoaBC: 5.33%; PfKRS1: 3.065%; MtTrpRS: -0.2469%.

Some entries from above, unchanged:

* O=C(NCc1cccnc1)[C@H]1C[C@@H]2CCN(c3ccncn3)C[C@H]2O1 : TcHisRS: 3.81%; Pks13 thioesterase: -1.745%; CoaBC: -14.92%; PfKRS1: -1.344%; MtTrpRS: -7.713%
* Cc1nnc(CN2CCCC(c3cc(C(N)=O)[nH]n3)C2)o1 (stereo unspecified) : TcHisRS: -0.7519%; Pks13 thioesterase: -6.597%; CoaBC: 5.575%; Leishmania in macrophages: 12.23%; PfKRS1: 0.578%; MtTrpRS: -2.582%

Measurements from “University of Dundee, Small-Polar-MMV Screening Library” (2021), ChEMBL document CHEMBL3988442.